The assay is described as follows: qHTS Assay for Lipid Storage Modulators in Drosophila S3 Cells.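 For cell number change: cells counted by Cell Tracker Red CMTPX staining in the red channel.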 The settings on record: BODIPY lipid droplet fluorescence, 18-24 h; for cell number change: measured here: cell count max response, cells fed with added oleic acid. An outline of the steps:
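Drosophila S3 cells got compounds at several concentrations plus oleic acid (400 uM solution). Laser-scanning cytometry with 488 nm excitation read lipid droplets at 500-530 nm and cells at 575-640 nm. Percent activity was relative to 20 uM Triacsin C.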

[1] abbreviates: measured here: lipid fluorescence (Fed channel) AC50, cells fed with added oleic acid.
The mark [2] stands for this setting: measured here: cell number channel AC50, cells fed with added oleic acid.

The list shows a part of the results. These are further read-outs of the screen, such as a control signal, another cell line or another target. No call is given for them. Compounds called inactive in the main read-out are mostly missing here. Words in brackets tell the shape of the fitted curve; partial curves, single points and poor fits give uncertain potencies.

For `COc1ccc(N2CCN(C(=O)c3ccc(CS(=O)(=O)c4ccccc4C)o3)CC2)cc1`, the cell number change was -0.288%.

For `CC(=O)N1CCN(c2ccc(NC(=O)c3ccccc3Cl)cc2)CC1`, the cell number change was -10.2%.

Turning to `COc1ccc(NC(=O)C2CCCN2S(=O)(=O)c2ccc(Cl)cc2)cc1` (centres undefined), the cell number change was 28.6%.

`CC1CN(C(=O)c2ccc(S(=O)(=O)Nc3ccccc3Cl)cc2)CC(C)O1` (centres undefined): the cell number change was found to be 22.2%. Under setting [1], the AC50 is 22.4 µM [rising, single point].

For the compound `COC(=O)CSc1nnc(-c2ccc(S(=O)(=O)N3CCCCC3)cc2)o1`, the cell number change is -27%. Moreover, the AC50 under setting [1] is 4.11 µM [falling, full curve].

Turning to `CC(C)(C#N)NC(=O)c1ccco1`, the cell number change is -7.78%. For the same compound, under setting [1], the AC50 was 1.46 µM [falling, full curve].

Turning to `COc1ccccc1C(=O)N/C(=C/c1ccc2c(c1)OCO2)C(=O)Nc1ccc(C(=O)O)cc1`, the cell number change came out at 9.17%.

With `O=C(CCCN1C(=O)c2cccc3cccc(c23)C1=O)Nc1ccon1`, the cell number change is -16%. Moreover, under setting [1], the AC50 was 0.82 µM [falling, full curve, poor fit].

Take `CNC(=O)/C(C#N)=C\c1ccc(CNS(=O)(=O)c2ccccc2)o1`: the cell number change was found to be 3.13%. Also, the AC50 under setting [1] is 1.16 µM [falling, single point].

Regarding `CCCn1nnc(NC(=O)c2ccco2)n1`, the cell number change was -17.1%. For the same compound, the AC50 under setting [1] was 1.03 µM [falling, full curve, poor fit].

With `O=C(COc1ccc(Cl)cc1Cl)NN1C(=O)C2C3C=CC([C@@H]2C1=O)C31CC1` (some centres undefined), the cell number change amounted to 7.66%. Further, the concentration at half-maximal activity (AC50) under setting [1] was 29.1 µM [rising, single point].

Take `Cc1ccc(C(=O)OCC(=O)Nc2ccc(Cl)cn2)cc1S(=O)(=O)N1CCOCC1`: the cell number change was -15.3%.

For `Cc1cccc2c(C(=O)N3CCN(c4ccccc4)CC3)cc(-c3ccncc3)nc12`, the cell number change is -31%. The AC50 under setting [2] was 20.6 µM [falling, single point].

Consider `CC1CCc2nc(NCCO)nc(C(F)(F)F)c2C1` (centres undefined), for which the cell number change was 7.27%.

On to `CCCSc1ccccc1C(=O)N1CCN(C(=O)c2ccco2)CC1`, for which the cell number change was -3.76%. Under setting [1], the concentration at half-maximal activity (AC50) is 29.1 µM [falling, single point].

On to `CC1CCC(NC(=O)c2nn(C)c3c2CSc2ccccc2-3)CC1` (centres undefined), for which the cell number change came to 23.8%. Besides, the AC50 under setting [1] was 29.1 µM [falling, single point].

`Cc1cccc(OCCCCCn2ccnc2)c1`: under setting [1], the AC50 was 29.1 µM [falling, single point].

Take `COc1ccc(CN(C)CC2CCCN(CCc3ccc(F)cc3)C2)cc1OC` (centres undefined): the cell number change is -13.2%. Further, the AC50 under setting [1] is 6.51 µM [falling, single point].

In the case of `Cc1ccccc1NC(=O)CCN1CCN(CCO)CC1`, the cell number change is -0.549%. For the same compound, the AC50 under setting [1] is 0.92 µM [falling, full curve, poor fit].

Regarding `Cc1c(Cl)cccc1NC(=O)COC(=O)c1ccc(CN2CCCC2=O)cc1`, the cell number change is -11.6%. Also, under setting [2], the AC50 was 1.03 µM [rising, single point]. Under setting [1], the AC50 is 5.17 µM [rising, single point].

The values are drawn from PubChem BioAssay AID2685 (National Center for Advancing Translational Sciences (NCATS), 2010).
